Data from PMC10648649.

Protein sequences, listed by entry. Tags and fused reporters are not part of them. Lines headed by an entry give the natural chain unless they say otherwise; changes in a name come on top. Residues count along the entry.
UniProt P02649, residues 19-317: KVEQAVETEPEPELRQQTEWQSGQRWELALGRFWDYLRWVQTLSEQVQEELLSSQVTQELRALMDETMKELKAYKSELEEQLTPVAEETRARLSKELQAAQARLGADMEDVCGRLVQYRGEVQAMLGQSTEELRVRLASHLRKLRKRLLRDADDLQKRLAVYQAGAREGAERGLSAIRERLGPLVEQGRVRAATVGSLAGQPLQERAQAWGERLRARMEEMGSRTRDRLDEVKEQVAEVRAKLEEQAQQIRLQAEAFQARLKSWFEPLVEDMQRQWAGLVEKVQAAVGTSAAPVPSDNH
UniProt P02656, residues 21-99: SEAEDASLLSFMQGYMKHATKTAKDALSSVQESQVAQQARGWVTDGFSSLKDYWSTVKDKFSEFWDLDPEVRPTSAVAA
UniProt P02647: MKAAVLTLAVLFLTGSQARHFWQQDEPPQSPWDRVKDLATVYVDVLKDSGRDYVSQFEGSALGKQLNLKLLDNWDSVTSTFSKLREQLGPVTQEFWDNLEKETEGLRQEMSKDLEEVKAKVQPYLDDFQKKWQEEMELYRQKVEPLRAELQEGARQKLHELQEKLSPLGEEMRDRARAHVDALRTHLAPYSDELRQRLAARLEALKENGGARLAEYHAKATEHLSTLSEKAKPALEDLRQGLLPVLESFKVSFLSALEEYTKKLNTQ

Key:
Experiment in all cases: ELISA; modified sandwich ELISA: human plasma in PBS on plates coated with an antibody to the defining protein, overnight 4 °C, 3 PBS washes; bound lipoprotein complexes dissociated with Tween diluent and their apoA-I measured on anti-apoA-I plates
[1] = target: apolipoprotein E (human (endogenous in human serum and plasma)) (UniProt P02649)
[2] = target: apolipoprotein C-III (human (endogenous in human serum and plasma)) (UniProt P02656)
[3] = target: T1, alpha-2-macroglobulin (human (endogenous in human plasma)) (UniProt P01023)
T1 sequence: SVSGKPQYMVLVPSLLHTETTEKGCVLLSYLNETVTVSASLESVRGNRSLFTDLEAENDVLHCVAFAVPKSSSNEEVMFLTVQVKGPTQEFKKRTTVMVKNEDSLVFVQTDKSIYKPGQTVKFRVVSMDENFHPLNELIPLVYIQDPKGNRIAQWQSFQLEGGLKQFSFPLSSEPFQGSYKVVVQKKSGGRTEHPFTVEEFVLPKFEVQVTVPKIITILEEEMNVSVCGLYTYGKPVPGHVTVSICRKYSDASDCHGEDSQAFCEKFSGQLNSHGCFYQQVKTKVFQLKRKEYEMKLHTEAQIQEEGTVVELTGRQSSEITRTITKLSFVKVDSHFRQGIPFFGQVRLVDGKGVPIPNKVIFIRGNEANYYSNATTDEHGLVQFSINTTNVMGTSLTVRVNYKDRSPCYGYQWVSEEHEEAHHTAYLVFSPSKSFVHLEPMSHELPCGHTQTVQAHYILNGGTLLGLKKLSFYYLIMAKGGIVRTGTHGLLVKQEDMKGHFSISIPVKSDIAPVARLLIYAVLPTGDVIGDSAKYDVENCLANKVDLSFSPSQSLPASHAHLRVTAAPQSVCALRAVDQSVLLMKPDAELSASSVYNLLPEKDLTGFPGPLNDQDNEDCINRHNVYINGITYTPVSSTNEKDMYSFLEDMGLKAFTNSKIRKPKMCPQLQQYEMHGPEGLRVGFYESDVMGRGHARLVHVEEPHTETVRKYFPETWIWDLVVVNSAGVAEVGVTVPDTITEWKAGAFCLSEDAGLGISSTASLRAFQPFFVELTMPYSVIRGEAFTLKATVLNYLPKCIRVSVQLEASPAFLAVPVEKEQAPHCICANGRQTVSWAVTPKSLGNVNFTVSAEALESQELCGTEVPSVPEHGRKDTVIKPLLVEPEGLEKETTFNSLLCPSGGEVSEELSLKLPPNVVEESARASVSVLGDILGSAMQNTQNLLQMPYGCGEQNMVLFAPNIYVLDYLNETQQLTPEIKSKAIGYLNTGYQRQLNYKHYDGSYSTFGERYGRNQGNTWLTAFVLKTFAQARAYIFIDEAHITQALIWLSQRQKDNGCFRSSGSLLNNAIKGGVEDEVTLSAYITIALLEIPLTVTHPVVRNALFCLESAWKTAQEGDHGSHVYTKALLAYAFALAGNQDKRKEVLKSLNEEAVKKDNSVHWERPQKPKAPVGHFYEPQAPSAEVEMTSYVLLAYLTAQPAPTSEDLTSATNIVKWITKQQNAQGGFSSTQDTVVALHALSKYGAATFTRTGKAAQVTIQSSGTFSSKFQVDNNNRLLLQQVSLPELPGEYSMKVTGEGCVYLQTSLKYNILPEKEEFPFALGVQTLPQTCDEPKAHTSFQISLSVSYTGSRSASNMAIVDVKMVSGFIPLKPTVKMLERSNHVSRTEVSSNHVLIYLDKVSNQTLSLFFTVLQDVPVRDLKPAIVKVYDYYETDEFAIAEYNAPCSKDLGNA

[4] = target: T2, apolipoprotein C-I (human (endogenous in human serum and plasma)) (UniProt P02654)
T2 sequence: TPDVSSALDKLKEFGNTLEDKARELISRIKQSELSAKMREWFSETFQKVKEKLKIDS

Measured: binding

apolipoprotein A-I (from UniProt P02647)
binds: all assays above

Results are given in words; binding and its absence hold for the method and conditions named. Binding calls can cover weak binding; strength is not graded here.
